Experimental data taken from patent US20060149521A1 (University of California, published 2006).
These are yes or no findings as the source states them, for the method shown. For some assays here: Binding seen in cells or lysates may run through a third protein. Some entries that bind do so weakly or less than the wild type. For some assays here: Tags and fused reporters may be left off the sequences shown.

Chains of the proteins cited; added tags and fusions are not shown. Lines headed by an entry give the natural chain unless they say otherwise; changes in a name come on top. Residues count along the entry.
GST-GRIP1 (GRIP1 amino acids 721-1121) (Q61026, residues 721-1121): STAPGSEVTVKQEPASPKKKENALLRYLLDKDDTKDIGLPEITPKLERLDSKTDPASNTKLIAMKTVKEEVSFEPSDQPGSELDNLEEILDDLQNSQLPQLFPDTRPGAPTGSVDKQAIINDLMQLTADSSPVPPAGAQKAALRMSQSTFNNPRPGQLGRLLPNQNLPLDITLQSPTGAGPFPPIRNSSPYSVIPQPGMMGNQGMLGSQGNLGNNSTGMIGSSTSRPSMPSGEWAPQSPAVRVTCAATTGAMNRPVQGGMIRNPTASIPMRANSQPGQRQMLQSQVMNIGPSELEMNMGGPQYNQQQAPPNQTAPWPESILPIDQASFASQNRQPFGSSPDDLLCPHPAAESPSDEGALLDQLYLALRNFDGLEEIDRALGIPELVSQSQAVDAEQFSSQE
UniProt P19793: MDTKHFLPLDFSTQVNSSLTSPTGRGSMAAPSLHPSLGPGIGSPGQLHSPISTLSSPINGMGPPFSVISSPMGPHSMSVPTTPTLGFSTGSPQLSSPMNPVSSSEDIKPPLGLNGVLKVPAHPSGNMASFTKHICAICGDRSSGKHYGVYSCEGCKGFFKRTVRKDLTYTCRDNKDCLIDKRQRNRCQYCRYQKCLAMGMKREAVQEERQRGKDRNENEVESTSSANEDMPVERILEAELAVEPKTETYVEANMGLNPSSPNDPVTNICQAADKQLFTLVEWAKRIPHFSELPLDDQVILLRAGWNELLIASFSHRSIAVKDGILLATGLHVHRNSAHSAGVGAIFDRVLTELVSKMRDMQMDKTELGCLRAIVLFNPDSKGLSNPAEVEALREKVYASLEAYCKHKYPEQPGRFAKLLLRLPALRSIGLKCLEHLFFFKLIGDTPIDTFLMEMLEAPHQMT

T1: hTRβ ligand binding domain (hTRβ LBD), in vitro translated, as used in the GST-GRIP1 binding and peptide competition assays (human) (UniProt P10828)
T1 sequence ([35S]-methionine labelled (in vitro translated), looked up): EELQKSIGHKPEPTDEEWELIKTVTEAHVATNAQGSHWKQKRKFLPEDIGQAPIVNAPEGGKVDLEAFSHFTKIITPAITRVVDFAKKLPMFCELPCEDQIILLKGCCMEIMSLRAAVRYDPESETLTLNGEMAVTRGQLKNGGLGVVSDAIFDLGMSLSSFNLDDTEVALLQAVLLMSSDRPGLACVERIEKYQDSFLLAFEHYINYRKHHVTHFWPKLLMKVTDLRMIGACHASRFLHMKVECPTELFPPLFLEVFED


How the values were obtained:
[1] = target: T1, hTRβ ligand binding domain (hTRβ LBD), in vitro translated, as used in the GST-GRIP1 binding and peptide competition assays (human); assay: GST-GRIP1 (563-767) pull-down of in vitro translated TR
[2] = target: GRIP1 563-767 His6 GST fusion protein (mouse) (UniProt Q61026); assay: GST-GRIP1 pull-down of in vitro translated TR
[3] = target: hRXRα, full-length (human) (UniProt P19793); assay: GST-hTRβ1 pull-down of [35S]-hRXRα
[4] = target: GST-hRXRα (full-length) (human) (UniProt P19793); assay: GST-RXR pull-down of TR, data not shown
[5] = target: GST-GRIP1 (GRIP1 amino acids 721-1121) (mouse) (UniProt Q61026); assay: GST-GRIP1 pull-down of [35S]-hTRβ1 with T3

| Molecule | binding [4] | further results |
| --- | --- | --- |
| GRIP1 563-767 His6 GST fusion protein (from UniProt Q61026 563-767) | – | binding [1]: binds |
| hTRβ ligand binding domain (hTRβ LBD), in vitro translated, as used in the GST-GRIP1 binding and peptide competition assays (receptor, human, UniProt P10828 202-461, looked up, [35S]-methionine labelled (in vitro translated)) EELQKSIGHKPEPTDEEWELIKTVTEAHVATNAQGSHWKQKRKFLPEDIGQAPIVNAPEGGKVDLEAFSHFTKIITPAITRVVDFAKKLPMFCELPCEDQIILLKGCCMEIMSLRAAVRYDPESETLTLNGEMAVTRGQLKNGGLGVVSDAIFDLGMSLSSFNLDDTEVALLQAVLLMSSDRPGLACVERIEKYQDSFLLAFEHYINYRKHHVTHFWPKLLMKVTDLRMIGACHASRFLHMKVECPTELFPPLFLEVFED | – | binding [2]: binds |
| GST-hTRβ1, full-length, wild type (receptor, human, UniProt P10828 1-461, looked up, not shown: a dimerising Fc or GST) MTPNSMTENGLTAWDKPKHCPDREHDWKLVGMSEACLHRKSHSERRSTLKNEQSSPHLIQTTWTSSIFHLDHDDVNDQSVSSAQTFQTEEKKCKGYIPSYLDKDELCVVCGDKATGYHYRCITCEGCKGFFRRTIQKNLHPSYSCKYEGKCVIDKVTRNQCQECRFKKCIYVGMATDLVLDDSKRLAKRKLIEENREKRRREELQKSIGHKPEPTDEEWELIKTVTEAHVATNAQGSHWKQKRKFLPEDIGQAPIVNAPEGGKVDLEAFSHFTKIITPAITRVVDFAKKLPMFCELPCEDQIILLKGCCMEIMSLRAAVRYDPESETLTLNGEMAVTRGQLKNGGLGVVSDAIFDLGMSLSSFNLDDTEVALLQAVLLMSSDRPGLACVERIEKYQDSFLLAFEHYINYRKHHVTHFWPKLLMKVTDLRMIGACHASRFLHMKVECPTELFPPLFLEVFED | – | binding [3]: binds |
| hTRβ1 L454R, full-length (receptor, human, UniProt P10828 1-461, looked up, [35S]-Met labelled (in vitro translated)) MTPNSMTENGLTAWDKPKHCPDREHDWKLVGMSEACLHRKSHSERRSTLKNEQSSPHLIQTTWTSSIFHLDHDDVNDQSVSSAQTFQTEEKKCKGYIPSYLDKDELCVVCGDKATGYHYRCITCEGCKGFFRRTIQKNLHPSYSCKYEGKCVIDKVTRNQCQECRFKKCIYVGMATDLVLDDSKRLAKRKLIEENREKRRREELQKSIGHKPEPTDEEWELIKTVTEAHVATNAQGSHWKQKRKFLPEDIGQAPIVNAPEGGKVDLEAFSHFTKIITPAITRVVDFAKKLPMFCELPCEDQIILLKGCCMEIMSLRAAVRYDPESETLTLNGEMAVTRGQLKNGGLGVVSDAIFDLGMSLSSFNLDDTEVALLQAVLLMSSDRPGLACVERIEKYQDSFLLAFEHYINYRKHHVTHFWPKLLMKVTDLRMIGACHASRFLHMKVECPTELFPPRFLEVFED | binds | – |
| hTRβ1 V284R, full-length (receptor, human, UniProt P10828 1-461, looked up, [35S]-Met labelled (in vitro translated)) MTPNSMTENGLTAWDKPKHCPDREHDWKLVGMSEACLHRKSHSERRSTLKNEQSSPHLIQTTWTSSIFHLDHDDVNDQSVSSAQTFQTEEKKCKGYIPSYLDKDELCVVCGDKATGYHYRCITCEGCKGFFRRTIQKNLHPSYSCKYEGKCVIDKVTRNQCQECRFKKCIYVGMATDLVLDDSKRLAKRKLIEENREKRRREELQKSIGHKPEPTDEEWELIKTVTEAHVATNAQGSHWKQKRKFLPEDIGQAPIVNAPEGGKVDLEAFSHFTKIITPAITRVRDFAKKLPMFCELPCEDQIILLKGCCMEIMSLRAAVRYDPESETLTLNGEMAVTRGQLKNGGLGVVSDAIFDLGMSLSSFNLDDTEVALLQAVLLMSSDRPGLACVERIEKYQDSFLLAFEHYINYRKHHVTHFWPKLLMKVTDLRMIGACHASRFLHMKVECPTELFPPLFLEVFED | binds | – |
| human thyroid hormone receptor β1 (hTRβ1), full-length 461 amino acids, wild type (receptor, UniProt P10828 1-461, looked up, [35S]-Met labelled (in vitro translated)) MTPNSMTENGLTAWDKPKHCPDREHDWKLVGMSEACLHRKSHSERRSTLKNEQSSPHLIQTTWTSSIFHLDHDDVNDQSVSSAQTFQTEEKKCKGYIPSYLDKDELCVVCGDKATGYHYRCITCEGCKGFFRRTIQKNLHPSYSCKYEGKCVIDKVTRNQCQECRFKKCIYVGMATDLVLDDSKRLAKRKLIEENREKRRREELQKSIGHKPEPTDEEWELIKTVTEAHVATNAQGSHWKQKRKFLPEDIGQAPIVNAPEGGKVDLEAFSHFTKIITPAITRVVDFAKKLPMFCELPCEDQIILLKGCCMEIMSLRAAVRYDPESETLTLNGEMAVTRGQLKNGGLGVVSDAIFDLGMSLSSFNLDDTEVALLQAVLLMSSDRPGLACVERIEKYQDSFLLAFEHYINYRKHHVTHFWPKLLMKVTDLRMIGACHASRFLHMKVECPTELFPPLFLEVFED | – | binding [2]: binds; binding [5]: binds |
| hTRβ1 K288A, full-length (receptor, human, UniProt P10828 1-461, looked up, [35S]-Met labelled (in vitro translated)) MTPNSMTENGLTAWDKPKHCPDREHDWKLVGMSEACLHRKSHSERRSTLKNEQSSPHLIQTTWTSSIFHLDHDDVNDQSVSSAQTFQTEEKKCKGYIPSYLDKDELCVVCGDKATGYHYRCITCEGCKGFFRRTIQKNLHPSYSCKYEGKCVIDKVTRNQCQECRFKKCIYVGMATDLVLDDSKRLAKRKLIEENREKRRREELQKSIGHKPEPTDEEWELIKTVTEAHVATNAQGSHWKQKRKFLPEDIGQAPIVNAPEGGKVDLEAFSHFTKIITPAITRVVDFAAKLPMFCELPCEDQIILLKGCCMEIMSLRAAVRYDPESETLTLNGEMAVTRGQLKNGGLGVVSDAIFDLGMSLSSFNLDDTEVALLQAVLLMSSDRPGLACVERIEKYQDSFLLAFEHYINYRKHHVTHFWPKLLMKVTDLRMIGACHASRFLHMKVECPTELFPPLFLEVFED | binds | – |

Further lines, with some results ahead:

| binding [4] | Molecule | further results |
| --- | --- | --- |
| binds | hTRβ1 I302R, full-length (receptor, human, UniProt P10828 1-461, looked up, [35S]-Met labelled (in vitro translated)) MTPNSMTENGLTAWDKPKHCPDREHDWKLVGMSEACLHRKSHSERRSTLKNEQSSPHLIQTTWTSSIFHLDHDDVNDQSVSSAQTFQTEEKKCKGYIPSYLDKDELCVVCGDKATGYHYRCITCEGCKGFFRRTIQKNLHPSYSCKYEGKCVIDKVTRNQCQECRFKKCIYVGMATDLVLDDSKRLAKRKLIEENREKRRREELQKSIGHKPEPTDEEWELIKTVTEAHVATNAQGSHWKQKRKFLPEDIGQAPIVNAPEGGKVDLEAFSHFTKIITPAITRVVDFAKKLPMFCELPCEDQRILLKGCCMEIMSLRAAVRYDPESETLTLNGEMAVTRGQLKNGGLGVVSDAIFDLGMSLSSFNLDDTEVALLQAVLLMSSDRPGLACVERIEKYQDSFLLAFEHYINYRKHHVTHFWPKLLMKVTDLRMIGACHASRFLHMKVECPTELFPPLFLEVFED | – |
| binds | hTRβ1 E457K, full-length (receptor, human, UniProt P10828 1-461, looked up, [35S]-Met labelled (in vitro translated)) MTPNSMTENGLTAWDKPKHCPDREHDWKLVGMSEACLHRKSHSERRSTLKNEQSSPHLIQTTWTSSIFHLDHDDVNDQSVSSAQTFQTEEKKCKGYIPSYLDKDELCVVCGDKATGYHYRCITCEGCKGFFRRTIQKNLHPSYSCKYEGKCVIDKVTRNQCQECRFKKCIYVGMATDLVLDDSKRLAKRKLIEENREKRRREELQKSIGHKPEPTDEEWELIKTVTEAHVATNAQGSHWKQKRKFLPEDIGQAPIVNAPEGGKVDLEAFSHFTKIITPAITRVVDFAKKLPMFCELPCEDQIILLKGCCMEIMSLRAAVRYDPESETLTLNGEMAVTRGQLKNGGLGVVSDAIFDLGMSLSSFNLDDTEVALLQAVLLMSSDRPGLACVERIEKYQDSFLLAFEHYINYRKHHVTHFWPKLLMKVTDLRMIGACHASRFLHMKVECPTELFPPLFLKVFED | – |
| binds | hTRβ1 K306A, full-length (receptor, human, UniProt P10828 1-461, looked up, [35S]-Met labelled (in vitro translated)) MTPNSMTENGLTAWDKPKHCPDREHDWKLVGMSEACLHRKSHSERRSTLKNEQSSPHLIQTTWTSSIFHLDHDDVNDQSVSSAQTFQTEEKKCKGYIPSYLDKDELCVVCGDKATGYHYRCITCEGCKGFFRRTIQKNLHPSYSCKYEGKCVIDKVTRNQCQECRFKKCIYVGMATDLVLDDSKRLAKRKLIEENREKRRREELQKSIGHKPEPTDEEWELIKTVTEAHVATNAQGSHWKQKRKFLPEDIGQAPIVNAPEGGKVDLEAFSHFTKIITPAITRVVDFAKKLPMFCELPCEDQIILLAGCCMEIMSLRAAVRYDPESETLTLNGEMAVTRGQLKNGGLGVVSDAIFDLGMSLSSFNLDDTEVALLQAVLLMSSDRPGLACVERIEKYQDSFLLAFEHYINYRKHHVTHFWPKLLMKVTDLRMIGACHASRFLHMKVECPTELFPPLFLEVFED | – |
